Test results reported in patent publication US5945400A (Rhone-Poulenc Rorer SA, priority 1995, dated 1999).
Strings that start with PEPTIDE1 are HELM notation: dots part the residues, brackets hold end groups and non-standard residues.

Tests used:
[1] = Fmoc solid-phase peptide synthesis; HMP resin; conditions: whole synthesis, TFA salt
[2] = solid-phase peptide synthesis; conditions: whole synthesis, TFA salt

Row | Substance | final purity (method not given) [1] | final purity (method not given) [2]
1 | PEPTIDE1{A.T.P.A.K.K.A.A.A.T.P.A.K.K.A.A}$$$$V2.0 | greater than 95% | 
2 | PEPTIDE1{K.T.P.K.K.A.K.K.P.K.T.P.K.K.A.K.K.P}$$$$V2.0 |  | greater than 90%
3 | PEPTIDE1{P.K.K.K.R.K.V.[bAla].K.T.P.K.K.A.K.K.P.K.T.P.K.K.A.K.K.P}$$$$V2.0 |  | greater than 95%
4 | PEPTIDE1{P.K.K.K.R.K.V}$$$$V2.0 |  | greater than 95%
